Experimental data from patent US20180230213A1.
These are yes or no findings as the source states them, for the method shown. Some entries that bind do so weakly or less than the wild type.

Sequences of proteins named here, by UniProt entry; tags and fusion partners are left off. Residues count along the entry.
UniProt Q9UM47, residues 40-467: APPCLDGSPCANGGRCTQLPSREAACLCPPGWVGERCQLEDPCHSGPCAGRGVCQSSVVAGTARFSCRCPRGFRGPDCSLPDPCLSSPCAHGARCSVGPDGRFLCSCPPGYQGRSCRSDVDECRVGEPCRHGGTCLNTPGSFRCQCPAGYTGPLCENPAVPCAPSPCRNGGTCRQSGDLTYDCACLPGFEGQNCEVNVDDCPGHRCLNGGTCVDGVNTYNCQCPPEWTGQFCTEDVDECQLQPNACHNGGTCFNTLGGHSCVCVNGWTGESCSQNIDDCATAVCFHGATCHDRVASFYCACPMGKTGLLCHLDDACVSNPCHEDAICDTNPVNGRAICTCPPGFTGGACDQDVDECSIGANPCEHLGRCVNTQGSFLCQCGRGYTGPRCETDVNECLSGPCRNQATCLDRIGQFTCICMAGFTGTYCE
UniProt O00548, residues 22-540: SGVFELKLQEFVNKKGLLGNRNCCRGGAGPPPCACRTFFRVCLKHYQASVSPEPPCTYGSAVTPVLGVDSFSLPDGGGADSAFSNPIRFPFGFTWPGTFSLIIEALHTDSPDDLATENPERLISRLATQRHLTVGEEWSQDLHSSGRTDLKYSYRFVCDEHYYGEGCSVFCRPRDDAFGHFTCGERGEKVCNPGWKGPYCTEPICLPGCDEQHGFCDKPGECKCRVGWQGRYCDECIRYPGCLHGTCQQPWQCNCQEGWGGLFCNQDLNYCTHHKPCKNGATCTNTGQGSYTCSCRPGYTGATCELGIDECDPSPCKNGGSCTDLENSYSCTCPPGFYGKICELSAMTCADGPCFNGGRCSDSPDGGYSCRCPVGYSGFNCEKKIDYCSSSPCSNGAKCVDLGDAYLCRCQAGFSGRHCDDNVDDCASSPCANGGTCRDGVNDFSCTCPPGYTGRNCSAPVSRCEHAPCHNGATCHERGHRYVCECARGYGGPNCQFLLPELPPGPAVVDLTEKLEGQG

Target: recombinant human Notch3 extracellular domain (containing EGF like domains 1-11) Fc fusion protein (human) (UniProt Q9UM47)
Test: BLI (Octet QK): rhNotch3 on the sensor, IgG in place of a Notch3 antibody, then the ligand in solution

In the case of “rhDLL1-Fc (from UniProt O00548 22-540) (Fc fusion)”, the binding is reported as “binds”.
